These are yes or no findings as the source states them, for the method shown. Binding seen in cells or lysates may run through a third protein.

The chains behind the UniProt entries cited, without tags or fusion partners. Where a name states a change or a piece, a line headed by the entry shows the natural chain unless it says otherwise.
UniProt P40537: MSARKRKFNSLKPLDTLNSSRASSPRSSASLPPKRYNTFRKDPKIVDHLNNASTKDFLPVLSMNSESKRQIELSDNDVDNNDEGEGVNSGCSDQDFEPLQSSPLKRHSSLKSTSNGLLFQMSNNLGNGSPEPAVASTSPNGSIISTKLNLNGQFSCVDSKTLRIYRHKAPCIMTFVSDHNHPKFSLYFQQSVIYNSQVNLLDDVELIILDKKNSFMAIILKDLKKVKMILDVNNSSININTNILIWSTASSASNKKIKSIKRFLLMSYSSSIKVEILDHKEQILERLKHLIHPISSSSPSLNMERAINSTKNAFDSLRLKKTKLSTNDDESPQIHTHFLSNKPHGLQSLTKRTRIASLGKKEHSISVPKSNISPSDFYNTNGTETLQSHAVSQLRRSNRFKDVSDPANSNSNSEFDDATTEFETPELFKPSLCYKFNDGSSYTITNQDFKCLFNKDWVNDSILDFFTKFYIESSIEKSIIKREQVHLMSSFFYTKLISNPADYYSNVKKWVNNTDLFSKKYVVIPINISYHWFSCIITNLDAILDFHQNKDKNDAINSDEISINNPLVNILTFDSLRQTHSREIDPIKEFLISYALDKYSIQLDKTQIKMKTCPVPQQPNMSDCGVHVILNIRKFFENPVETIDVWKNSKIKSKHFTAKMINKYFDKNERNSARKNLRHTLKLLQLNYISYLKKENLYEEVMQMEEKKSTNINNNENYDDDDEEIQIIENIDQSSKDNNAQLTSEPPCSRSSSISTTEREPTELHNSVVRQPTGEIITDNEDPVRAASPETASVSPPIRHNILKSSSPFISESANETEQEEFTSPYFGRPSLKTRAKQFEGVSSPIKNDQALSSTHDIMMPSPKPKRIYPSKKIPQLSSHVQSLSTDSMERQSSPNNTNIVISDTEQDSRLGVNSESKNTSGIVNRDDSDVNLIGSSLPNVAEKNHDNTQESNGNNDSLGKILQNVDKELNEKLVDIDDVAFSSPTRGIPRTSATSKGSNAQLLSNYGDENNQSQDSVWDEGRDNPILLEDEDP
UniProt Q06675: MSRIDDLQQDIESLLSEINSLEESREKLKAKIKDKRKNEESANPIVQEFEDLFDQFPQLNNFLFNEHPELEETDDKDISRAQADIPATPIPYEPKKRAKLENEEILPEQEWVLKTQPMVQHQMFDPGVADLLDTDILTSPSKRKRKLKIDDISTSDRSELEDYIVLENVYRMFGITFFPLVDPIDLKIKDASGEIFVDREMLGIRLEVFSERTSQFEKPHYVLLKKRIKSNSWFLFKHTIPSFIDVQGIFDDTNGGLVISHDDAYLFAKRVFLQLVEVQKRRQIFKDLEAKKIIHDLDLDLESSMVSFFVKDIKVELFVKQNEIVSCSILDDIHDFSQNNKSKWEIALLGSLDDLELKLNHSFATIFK

This experiment deals with Ulp2^873-1034 CCR^3A mutant, on CNBr-activated resin (S. cerevisiae) (UniProt P40537). Briefly: pull-down; Ulp2^873-1034 (wild type or CCR^3A) on CNBr-activated resin incubated with yeast whole cell extract (wild-type strain background; also cnn1Δ), 2 h at 4 °C, PBSN buffer; anti-Protein A Western blot; only the target purified. On the technique in general: In western blotting, separated proteins are transferred to a membrane and probed.

Take “Mcm21, endogenously tagged, in yeast cell extract (from UniProt Q06675 1-368)”: the binding entry is recorded as “no binding”.
